Assay results: patent US8470805B2, “Processes for preparing piperazinium salts of KMUP and use thereof” (Kaohsiung Medical University, priority 2009, dated 2013)

Test system: STZ-induced diabetic rats
Test: Serum glucose and body weight in streptozosin (STZ)-induced diabetic rats
Assay type: in vivo
Settings: after 21 days
Description: 2. The effect of KMUP-1 on decreasing the amount of the serum glucose in streptozosin (STZ)-induced diabetic rats
60 mg/kg of streptozosin is injected intravenously for inducing the STZ-induced rats, and the KMUP-1 HCl salt (0.5, 1.5, 2.5 and 5 mg/kg) and KMUP-1-Simvastatinic acid (5 mg/kg) are administered orally. After 21 days, the amount of the serum glucose (mg/dl), the amount of the serum insulin (mg/dl), the body weight (g) and the change of the body weight are measured.

Cl.Cn1c(=O)c2c(ncn2CCN2CCN(c3ccccc3Cl)CC2)n(C)c1=O [KMUP-1 HCl salt, 7-[2-[4-(2-chlorobenzene)piperazinyl]ethyl]-1,3-dimethyl xanthine HCl]
Body weight (0.5 mg/kg orally): 312.2 ± 8.9 g | Body weight (1.5 mg/kg orally): 310.2 ± 7.4 g | Body weight (2.5 mg/kg orally): 308.2 ± 8.4 g | Body weight (5 mg/kg orally): 301.3 ± 11.7 g
